Measurements reported in PubChem BioAssay AID1053208 (Peter MacCallum Cancer Centre, 2014)
Test: 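Find knock-downs that sensitise mouse osteosarcoma cells to doxorubicin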 (primary screen). System: mouse osteosarcoma cells, early-passage culture from an engineered mouse model of fibroblastic bone tumour. Reagents: siRNA pool against mouse genes, 40 nM. Timing: about 120 h (48 h before drug, then 72 h with drug). Treatment: doxorubicin 100 nM for 72 h, roughly 30-40% inhibitory dose. Read-out: 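Viability read as ATP luminescence after 72 h of 100 nM doxorubicin or none, duplicate wells averaged, scaled to non-targeting siRNA, then expressed as robust z-scores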. Direction: viability z-score with doxorubicin: higher = more viable cells under doxorubicin; viability z-score without drug: higher = more viable cells with knock-down alone. Call rule: 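Called active if knock-down leaves viability unchanged without drug (z within -2 to 2) but lowers it with doxorubicin (z at or under -2)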.
Shown is a random part of about 17,000 deposited reagents. In the full data, 788 (4.7%) got an active call. 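Calls rest on z-score classes alone; an extra cut-off of viability at most 70% of control was not applied to them.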 The numbers tell different reagents against one gene apart. Not all columns of the deposit are shown. Reagent sequences are not shown.

| target | reagent no. | combined z-score class | viability z-score with doxorubicin | viability z-score without drug | Outcome |
| --- | --- | --- | --- | --- | --- |
| Zfp446 (zinc finger protein 446) | 1 | no change with or without drug | -0.45 | 0.17 | inactive |
| Smim3 (small integral membrane protein 3) | 1 | no change with or without drug | -0.22 | -0.67 | inactive |
| Hoxc10 (homeobox C10) | 1 | no change with or without drug | -0.22 | 0.17 | inactive |
| Sh2d1a (SH2 domain containing 1A) | 1 | no change with or without drug | 0 | 0.84 | inactive |
| Prrx2 (paired related homeobox 2) | 1 | no change with or without drug | 1.01 | 0.51 | inactive |
| Grem1 (gremlin 1, DAN family BMP antagonist) | 1 | no change with or without drug | -0.11 | -1.18 | inactive |
| Cnpy4 (canopy FGF signaling regulator 4) | 1 | no change with or without drug | -0.11 | 0.17 | inactive |
| Rilpl2 (Rab interacting lysosomal protein-like 2) | 1 | no change with or without drug | 0.11 | -0.17 | inactive |
| Pdcl2 (phosducin-like 2) | 1 | high cell count without drug only | 1.12 | 2.36 | inactive |
| Tmem171 (transmembrane protein 171) | 1 | no change with or without drug | -0.9 | 1.18 | inactive |
| Vamp4 (vesicle-associated membrane protein 4) | 1 | no change with or without drug | -1.35 | 1.85 | inactive |
| Dhx34 (DExH-box helicase 34) | 1 | no change with or without drug | 1.57 | 0.84 | inactive |
| Gss (glutathione synthetase) | 1 | no change with or without drug | 0.9 | 0.34 | inactive |
| Srpx (sushi-repeat-containing protein) | 1 | no change with or without drug | -0.67 | 1.18 | inactive |
| Plekhh2 (pleckstrin homology, MyTH4 and FERM domain containing H2) | 1 | no change with or without drug | 0.45 | 1.18 | inactive |
| Rab21 (RAB21, member RAS oncogene family) | 1 | no change with or without drug | -1.12 | 0 | inactive |

7 entries from above, showing only “viability z-score without drug”:
Smim3 (small integral membrane protein 3) = -0.67
Hoxc10 (homeobox C10) = 0.17
Sh2d1a (SH2 domain containing 1A) = 0.84
Prrx2 (paired related homeobox 2) = 0.51
Grem1 (gremlin 1, DAN family BMP antagonist) = -1.18
Cnpy4 (canopy FGF signaling regulator 4) = 0.17
Rilpl2 (Rab interacting lysosomal protein-like 2) = -0.17

Next reagents follow.
| target | reagent no. | combined z-score class | viability z-score with doxorubicin | viability z-score without drug | Outcome |
| --- | --- | --- | --- | --- | --- |
| Bzw1 (basic leucine zipper and W2 domains 1) | 1 | no change with or without drug | -1.12 | 1.85 | inactive |
| Dgkk (diacylglycerol kinase kappa) | 1 | no change with or without drug | 0.22 | 0.84 | inactive |
| Klk14 (kallikrein related-peptidase 14) | 1 | no change with or without drug | 0.67 | 1.18 | inactive |
| Ttc33 (tetratricopeptide repeat domain 33) | 1 | no change with or without drug | 0.22 | -0.51 | inactive |
| Fcrl2 (Fc receptor like 2) | 1 | low cell count with doxorubicin only | -2.36 | -1.35 | active |
| Otx2 (orthodenticle homeobox 2) | 1 | no change with or without drug | -1.12 | -0.51 | inactive |
| Epb41l1 (erythrocyte membrane protein band 4.1 like 1) | 1 | no change with or without drug | -1.12 | -0.34 | inactive |
| Tomm40 (translocase of outer mitochondrial membrane 40) | 1 | low cell count without drug only | -0.67 | -2.19 | inactive |
| Prkcg (protein kinase C, gamma) | 1 | high cell count with and without drug | 2.02 | 2.7 | inactive |
| Limk2 (LIM domain kinase 2) | 1 | no change with or without drug | 1.8 | 0.34 | inactive |
| Arx (aristaless related homeobox) | 1 | high cell count with doxorubicin only | 3.6 | 1.18 | inactive |
| Irx4 (Iroquois homeobox 4) | 1 | no change with or without drug | 0.22 | -0.51 | inactive |
| Kat2a (K(lysine) acetyltransferase 2A) | 1 | no change with or without drug | -0.45 | -1.18 | inactive |
| Zbtb44 (zinc finger and BTB domain containing 44) | 1 | no change with or without drug | 0.34 | -0.34 | inactive |
| Zbtb44 (zinc finger and BTB domain containing 44) | 2 | no change with or without drug | 0.67 | 0.51 | inactive |
| Limk1 (LIM domain kinase 1) | 1 | no change with or without drug | -0.22 | -0.51 | inactive |
| Lin52 (lin-52 DREAM MuvB core complex component) | 1 | no change with or without drug | -0.34 | 0.17 | inactive |
| Nanos1 (nanos C2HC-type zinc finger 1) | 1 | no change with or without drug | 0.67 | 1.18 | inactive |
| Pkp2 (plakophilin 2) | 1 | no change with or without drug | 0 | -0.51 | inactive |
| Ppp1r9b (protein phosphatase 1, regulatory subunit 9B) | 1 | no change with or without drug | 1.35 | -0.34 | inactive |
| Sstr2 (somatostatin receptor 2) | 1 | no change with or without drug | -1.12 | -1.18 | inactive |
| 1700006J14Rik (RIKEN cDNA 1700006J14 gene) | 1 | no change with or without drug | 0.67 | 1.35 | inactive |
| Nap1l2 (nucleosome assembly protein 1-like 2) | 1 | no change with or without drug | -0.9 | -0.51 | inactive |
| Mapk7 (mitogen-activated protein kinase 7) | 1 | high cell count with doxorubicin only | 2.25 | 1.01 | inactive |
| Ca8 (carbonic anhydrase 8) | 1 | no change with or without drug | -0.22 | 1.01 | inactive |
| Emp3 (epithelial membrane protein 3) | 1 | no change with or without drug | -0.9 | 0.17 | inactive |
| Rbm38 (RNA binding motif protein 38) | 1 | no change with or without drug | -0.56 | 0.17 | inactive |
| Rnase2b | 1 | high cell count without drug only | 1.12 | 3.54 | inactive |
| Pfdn2 (prefoldin 2) | 1 | no change with or without drug | 0.45 | 0.51 | inactive |
| Foxk1 (forkhead box K1) | 1 | no change with or without drug | 0.22 | -0.84 | inactive |
| Cntn1 (contactin 1) | 1 | no change with or without drug | -0.9 | -0.84 | inactive |
| Cyria (CYFIP related Rac1 interactor A) | 1 | no change with or without drug | -0.22 | 0.67 | inactive |
| Dpp10 (dipeptidylpeptidase 10) | 1 | no change with or without drug | 1.35 | -0.17 | inactive |
| Rbbp5 | 1 | no change with or without drug | -1.01 | -0.84 | inactive |
